PubChem BioAssay AID1508588 | Peter MacCallum Cancer Centre, 2020

- Purpose: 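Knock-downs boosting vemurafenib effects on melanoma cell growth or lactate release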 (primary screen)
- System: human WM266.4 melanoma cells (BRAF V600 mutant)
- Knock-down reagent: siRNA pool against human genes, 40 nM
- Duration: 96 h from transfection to read-out
- Challenge: vemurafenib 300 nM (about IC25), added 48 h after transfection, for 48 h; comparison arm got DMSO vehicle only
- Read-out: 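Cell gain (DAPI nuclei at end minus before drug, mean of two replicates) and medium lactate by absorbance per cell, both as ratio to non-targeting siRNA, also grouped into fold-change classes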
- Reading the numbers: cell gain with vemurafenib: higher = more cell gain than with non-targeting siRNA; lactate per cell with vemurafenib: higher = more lactate made per cell
- Rule for the call: 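Enhancement is called by pairing each knock-down's vehicle-arm and drug-arm fold-change classes for viability or glycolysis; which class combinations qualify is not given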
- Meaning of the calls: active = enhances vemurafenib effect; inactive = no enhancement seen
Here is one part, drawn at random, of about 18,000 reagents. In the full data, 790 (4.4%) are marked active. 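Calls rest on a combination of fold-change classes in drug and vehicle arms, not all shown here.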 Reagents against one gene are numbered here. A reagent listed more than once was tested more than once; the source does not tell the runs apart.

Gene | pool no. | cell gain with vemurafenib | lactate per cell with vemurafenib | activity call
PDE5A (phosphodiesterase 5A) | 1 | 0.33 | 0.04 | active
DDX43 (DEAD-box helicase 43) | 1 | 0.94 | 0.65 | inactive
FOXK1 (forkhead box K1) | 1 | 0.72 | 1.75 | inactive
TAF9B (TATA-box binding protein associated factor 9b) | 1 | 0.43 | 0.64 | inactive
DNAI4 (dynein axonemal intermediate chain 4) | 1 | 0.52 | 0.73 | inactive
HLA-DRB5 (major histocompatibility complex, class II, DR beta 5) | 1 | 0.65 | 0.92 | inactive
RESF1 (retroelement silencing factor 1) | 1 | 1 | 0.89 | inactive
DHRS2 (dehydrogenase/reductase 2) | 1 | 0.7 | 0.54 | inactive
TMTC1 (transmembrane O-mannosyltransferase targeting cadherins 1) | 1 | 0.58 | 0.99 | inactive
PTBP2 (polypyrimidine tract binding protein 2) | 1 | 0.6 | 0.39 | inactive
TRIM47 (tripartite motif containing 47) | 1 | 0.28 | 2.1 | inactive
GPSM2 (G protein signaling modulator 2) | 1 | 0.8 | 0.82 | inactive
FAM131B (family with sequence similarity 131 member B) | 1 | 0.38 | 0.92 | inactive
CR1 (complement C3b/C4b receptor 1 (Knops blood group)) | 1 | 0.72 | 1.2 | inactive
H2AZ2 (H2A.Z variant histone 2) | 1 | 0.71 | 0.44 | inactive
PLEKHA7 (pleckstrin homology domain containing A7) | 1 | 0.22 | 1.6 | inactive
IL22 (interleukin 22) | 1 | 0.38 | 0.86 | inactive
MACF1 (microtubule actin crosslinking factor 1) | 1 | 0.54 | 1.73 | inactive
HEATR4 (HEAT repeat containing 4) | 1 | 0.74 | 0.87 | inactive
TTC38 (tetratricopeptide repeat domain 38) | 1 | 0.91 | 0.7 | inactive
RNF13 (ring finger protein 13) | 1 | 1.07 | 0.35 | inactive
RNF13 (ring finger protein 13) | 1 | 1.03 | 0.89 | inactive
OR8B4 (olfactory receptor family 8 subfamily B member 4) | 1 | 0.68 | 0.9 | inactive
SLX4IP (SLX4 interacting protein) | 1 | 0.92 | 0.58 | inactive
CADM1 (cell adhesion molecule 1) | 1 | 0.15 | 0.9 | inactive
HAUS7 (HAUS augmin like complex subunit 7) | 1 | 0.21 | 2.42 | inactive
ATF3 (activating transcription factor 3) | 1 | 0.44 | 1.56 | inactive
SKIC3 (SKI3 subunit of superkiller complex) | 1 | 0.84 | 0.11 | active
RDH14 (retinol dehydrogenase 14) | 1 | 0.48 | 0.81 | inactive
COX6B1 (cytochrome c oxidase subunit 6B1) | 1 | 0.03 | 0.84 | inactive
DCPS (decapping enzyme, scavenger) | 1 | 0.53 | 0.72 | inactive
KCTD12 (potassium channel tetramerization domain containing 12) | 1 | 0.08 | 1.89 | inactive
NOXO1 (NADPH oxidase organizer 1) | 1 | 0.78 | 1.22 | inactive
GALM (galactose mutarotase) | 1 | 0.87 | 0.52 | inactive
CDKN1A (cyclin dependent kinase inhibitor 1A) | 1 | 0.91 | 0.68 | inactive
HDAC10 (histone deacetylase 10) | 1 | 0.55 | 1.4 | inactive
TG (thyroglobulin) | 1 | 1.25 | 0.72 | inactive
KRT75 (keratin 75) | 1 | 1.08 | 0.93 | inactive
SLC9A9 | 1 | 0.73 | 0.92 | inactive
CCDC186 (coiled-coil domain containing 186) | 1 | 1.2 | 1.11 | inactive
REXO1L1P (REXO1 like 1, pseudogene) | 1 | 0.72 | 1.88 | inactive
TCOF1 (treacle ribosome biogenesis factor 1) | 1 | 0.94 | 0.72 | inactive
OVCH1 (ovochymase 1) | 1 | 0.69 | 0.32 | inactive
SYTL1 (synaptotagmin like 1) | 1 | 1.11 | 0.48 | inactive
MTRES1 (mitochondrial transcription rescue factor 1) | 1 | 0.88 | 0.24 | inactive
ESYT1 (extended synaptotagmin 1) | 1 | 0.54 | 1.34 | inactive
PROKR1 (prokineticin receptor 1) | 1 | 0.25 | 0.62 | inactive
LSM3 | 1 | 0.62 | 1.34 | inactive
CDC42BPG (CDC42 binding protein kinase gamma) | 1 | 0.54 | 1.16 | inactive
KIAA0408 | 1 | 0.82 | 0.66 | inactive
TYW3 (tRNA-yW synthesizing protein 3 homolog) | 1 | 0.59 | 0.42 | inactive
SLC22A9 | 1 | 0.35 | 1.15 | inactive
CCL8 (C-C motif chemokine ligand 8) | 1 | 0.57 | 2 | inactive
KRTAP9-4 (keratin associated protein 9-4) | 1 | 0.4 | 1.63 | inactive
KCTD16 (potassium channel tetramerization domain containing 16) | 1 | 0.89 | 0.75 | inactive
EIF2AK1 (eukaryotic translation initiation factor 2 alpha kinase 1) | 1 | 0.76 | 0.95 | inactive
ADRA2B (adrenoceptor alpha 2B) | 1 | 0.78 | 1.23 | inactive
TCAP (titin-cap) | 1 | 0.43 | 2.33 | inactive
ARRB1 (arrestin beta 1) | 1 | 0.73 | 1.14 | inactive
CCDC106 (coiled-coil domain containing 106) | 1 | 0.97 | 0.96 | inactive

The list goes on; the last 4 above are carried over.
Gene | pool no. | cell gain with vemurafenib | lactate per cell with vemurafenib | activity call
ADRA2B (adrenoceptor alpha 2B) | 1 | 0.78 | 1.23 | inactive
TCAP (titin-cap) | 1 | 0.43 | 2.33 | inactive
ARRB1 (arrestin beta 1) | 1 | 0.73 | 1.14 | inactive
CCDC106 (coiled-coil domain containing 106) | 1 | 0.97 | 0.96 | inactive
LPL (lipoprotein lipase) | 1 | 0.58 | 0.28 | inactive
MCM4 (minichromosome maintenance complex component 4) | 1 | 0.71 | 0.82 | inactive
SNRPD2 (small nuclear ribonucleoprotein D2 polypeptide) | 1 | -0.09 | 1.58 | inactive
NCEH1 (neutral cholesterol ester hydrolase 1) | 1 | 0.98 | 1.02 | inactive
SENP7 (SUMO specific peptidase 7) | 1 | 0.35 | 0.61 | inactive
CIMAP1D (CIMAP1 family member D) | 1 | 0.52 | 0.94 | inactive
OR10V1 (olfactory receptor family 10 subfamily V member 1) | 1 | 0.41 | 0.26 | inactive
ATP5MK (ATP synthase membrane subunit k) | 1 | 0.86 | 0.99 | inactive
TMEM88 (transmembrane protein 88) | 1 | 1.08 | 0.64 | inactive
MOB3A (MOB kinase activator 3A) | 1 | -0.1 | 2.1 | inactive
LRRC52 (leucine rich repeat containing 52) | 1 | 0.67 | 0.95 | inactive
ZFP37 (ZFP37 zinc finger protein) | 1 | 0.55 | 0.68 | inactive
GJA8 (gap junction protein alpha 8) | 1 | 0.47 | 0.28 | inactive
EFS (embryonal Fyn-associated substrate) | 1 | 0.51 | 1.96 | inactive
SERPINC1 (serpin family C member 1) | 1 | 0.33 | 1.52 | inactive
NOP14 (NOP14 nucleolar protein) | 1 | 0.53 | 1.36 | inactive
TACC3 (transforming acidic coiled-coil containing protein 3) | 1 | 1.18 | 0.46 | inactive
KHNYN (KH and NYN domain containing) | 1 | 0.75 | 1 | inactive
LGALS9C (galectin 9C) | 1 | 0.59 | 0.38 | active
TACSTD2 (tumor associated calcium signal transducer 2) | 1 | 0.53 | 0.6 | inactive
ZNF10 (zinc finger protein 10) | 1 | 0.91 | 0.82 | inactive
TBC1D2B (TBC1 domain family member 2B) | 1 | 0.89 | 0.7 | inactive
NEBL (nebulette) | 1 | 0.95 | 0.95 | inactive
NEBL (nebulette) | 2 | 0.67 | 0.67 | inactive
CEP57L1 (centrosomal protein 57 like 1) | 1 | 0.37 | 0.54 | inactive
RPAIN (RPA interacting protein) | 1 | 0.8 | 0.77 | inactive
C9orf152 (chromosome 9 open reading frame 152) | 1 | 0.82 | 0.63 | inactive
TMEM74 (transmembrane protein 74) | 1 | 0.37 | 1 | inactive
KCNK3 (potassium two pore domain channel subfamily K member 3) | 1 | 0.66 | 0.9 | inactive
FOCAD (focadhesin) | 1 | 0.59 | 1.03 | inactive
PIN1 (peptidylprolyl cis/trans isomerase, NIMA-interacting 1) | 1 | 0.54 | 1.82 | inactive
RNF128 (ring finger protein 128) | 1 | 0.43 | 0.32 | inactive
RNF128 (ring finger protein 128) | 1 | 0.59 | 1.64 | inactive
GFRA2 (GDNF family receptor alpha 2) | 1 | 0.99 | 0.97 | inactive
WSB1 (WD repeat and SOCS box containing 1) | 1 | 0.45 | 2.02 | inactive
SPAG16 (sperm associated antigen 16) | 1 | 1.25 | 0.69 | inactive
DNAJC14 (DnaJ heat shock protein family (Hsp40) member C14) | 1 | 0.82 | 0.77 | inactive
GSDMC (gasdermin C) | 1 | 0.74 | 1.1 | inactive
TRIM61 (tripartite motif containing 61) | 1 | 0.4 | 0.69 | inactive
PURG (purine rich element binding protein G) | 1 | 0.18 | 1.92 | inactive
MEST (mesoderm specific transcript) | 1 | 0.85 | 0.52 | inactive
KBTBD2 (kelch repeat and BTB domain containing 2) | 1 | 0.36 | 1.29 | inactive
PPBP (pro-platelet basic protein) | 1 | 0.69 | 0.78 | inactive
ADNP (activity dependent neuroprotector homeobox) | 1 | 1 | 1.44 | inactive
METAP1D (methionyl aminopeptidase type 1D, mitochondrial) | 1 | 0.17 | 0.65 | inactive
SEL1L (SEL1L adaptor subunit of SYVN1 ubiquitin ligase) | 1 | 0.64 | 0.77 | inactive
CCDC157 (coiled-coil domain containing 157) | 1 | 0.07 | 1.24 | inactive
